Reference: article PMC3419181

Molecular target: HA-TNIK-ΔGCKH (human)
Assay: co-IP; HEK293 cells co-transfected with tagged TNIK (or HA-TNIK domain constructs) and the tagged partner, without LMP1; tagged TNIK immunoprecipitated by anti-HA (12CA5) or anti-Flag (6F7); immunoblot

binding: binds weakly
B1: Flag-TAK1 (protein, UniProt O43318 1-606)
chain: MSTASAASSSSSSSAGEMIEAPSQVLNFEEIDYKEIEVEEVVGRGAFGVVCKAKWRAKDVAIKQIESESERKAFIVELRQLSRVNHPNIVKLYGACLNPVCLVMEYAEGGSLYNVLHGAEPLPYYTAAHAMSWCLQCSQGVAYLHSMQPKALIHRDLKPPNLLLVAGGTVLKICDFGTACDIQTHMTNNKGSAAWMAPEVFEGSNYSEKCDVFSWGIILWEVITRRKPFDEIGGPAFRIMWAVHNGTRPPLIKNLPKPIESLMTRCWSKDPSQRPSMEEIVKIMTHLMRYFPGADEPLQYPCQYSDEGQSNSATSTGSFMDIASTNTSNKSDTNMEQVPATNDTIKRLESKLLKNQAKQQSESGRLSLGASRGSSVESLPPTSEGKRMSADMSEIEARIAATTAYSKPKRGHRKTASFGNILDVPEIVISGNGQPRRRSIQDLTVTGTEPGQVSSRSSSPSVRMITTSGPTSEKPTRSHPWTPDDSTDTNGSDNSIPMAYLTLDHQLQPLAPCPNSKESMAVFEQHCKMAQEYMKVQTEIALLLQRKQELVAELDQDEKDQQNTSRLVQEHKKLLDENKSLSTYYQQCKKQLEVIRSQQQKRQGTS

No constants are given. Whether binding was seen depends on the method and setting. Binding seen in cells or lysates may run through a third protein. A result given as binding can be weak or reduced; the word gives no strength. Where a sequence is shown, tags or fusion partners need not be part of it.
